Results reported in paper PMC9300154.
These are yes or no findings as the source states them, for the method shown. In cells and extracts the contact can be indirect. Some binding calls cover weakened binding; strength is not graded here.

Protein sequences, listed by entry. Tags and fused reporters are not part of them.
UniProt Q16665: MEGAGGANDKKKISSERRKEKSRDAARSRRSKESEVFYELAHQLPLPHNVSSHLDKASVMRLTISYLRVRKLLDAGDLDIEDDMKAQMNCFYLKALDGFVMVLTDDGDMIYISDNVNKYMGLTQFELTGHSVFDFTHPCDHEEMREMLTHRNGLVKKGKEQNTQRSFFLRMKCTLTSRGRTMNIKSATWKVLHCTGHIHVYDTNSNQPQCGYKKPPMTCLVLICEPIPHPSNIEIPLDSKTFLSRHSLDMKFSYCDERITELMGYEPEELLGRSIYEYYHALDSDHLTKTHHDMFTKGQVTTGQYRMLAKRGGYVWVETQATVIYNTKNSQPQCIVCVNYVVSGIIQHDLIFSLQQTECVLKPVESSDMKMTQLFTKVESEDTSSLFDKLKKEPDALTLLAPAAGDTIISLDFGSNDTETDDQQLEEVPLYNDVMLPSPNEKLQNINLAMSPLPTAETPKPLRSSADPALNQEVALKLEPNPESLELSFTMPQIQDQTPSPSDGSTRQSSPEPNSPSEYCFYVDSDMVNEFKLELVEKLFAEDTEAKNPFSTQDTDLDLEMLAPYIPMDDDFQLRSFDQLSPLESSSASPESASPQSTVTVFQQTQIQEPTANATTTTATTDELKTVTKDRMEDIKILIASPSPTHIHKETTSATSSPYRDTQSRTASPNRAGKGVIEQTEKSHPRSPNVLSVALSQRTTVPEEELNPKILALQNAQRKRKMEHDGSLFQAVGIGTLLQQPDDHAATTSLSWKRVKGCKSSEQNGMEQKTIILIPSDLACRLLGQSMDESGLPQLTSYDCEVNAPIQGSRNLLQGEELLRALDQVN

Target: T1, spliced form of X-Box Binding Protein 1 (human (endogenous in human astrocytes and GBM tumour cells)) (UniProt P17861)
T1 sequence: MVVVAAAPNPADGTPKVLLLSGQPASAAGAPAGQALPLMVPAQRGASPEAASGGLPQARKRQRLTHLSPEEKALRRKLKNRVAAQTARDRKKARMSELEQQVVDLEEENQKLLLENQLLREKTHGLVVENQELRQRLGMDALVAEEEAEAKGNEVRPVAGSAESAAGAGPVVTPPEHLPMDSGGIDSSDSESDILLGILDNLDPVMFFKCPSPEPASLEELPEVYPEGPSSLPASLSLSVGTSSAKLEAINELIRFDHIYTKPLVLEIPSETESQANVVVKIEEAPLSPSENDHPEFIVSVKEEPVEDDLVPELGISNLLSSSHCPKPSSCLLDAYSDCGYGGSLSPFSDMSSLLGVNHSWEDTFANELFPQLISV
Assay: proximity ligation; in situ proximity ligation assay in human/mouse astrocytes and GBM tumour cells depleted of the sXBP1 targets SREBP2/ACSS2

binding: binds
Substance: HIF1α (from UniProt Q16665 1-826)
